Among the data in publication PMC6827007 are binding values, retold here.

The target in this assay is C-terminal redox domain of Arabidopsis thaliana APR1 (AtAPR1), amino acids 353-461 (Arabidopsis thaliana) (UniProt P92979). Briefly: SEC; HiPrep 16/60 Sephacryl S-200 HR column, 20 mM Tris-HCl pH 7.0, 200 mM NaCl; mass estimated against BioRad standard proteins; both purified.

No constants are given. Whether binding was seen depends on the method and setting.

B1: C-terminal redox domain of Arabidopsis thaliana APR1 (AtAPR1), amino acids 353-461 (domain or fragment, UniProt P92979 353-461)
chain: GSPEFMENLVTLSRQGIENLMKLENRKEPWIVVLYAPWCPFCQAMEASYDELADKLAGSGIKVAKFRADGDQKEFAKQELQLGSFPTILVFPKNSSRPIKYPSEKRDVESLTSFL
On to B1, for which the binding entry is listed as “no binding”.
